Our source for the neuronal differentiation score values is the supplement of paper PMC4635364.

Structures can show the parent of a compound that is named as a salt. Some of the results follow. Repeats in this data set agree poorly, so a single value says little.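 ReNCell VM, a human fetal ventral-midbrain neural progenitor line, was differentiated without mitogens. Blinded raters scored images stained for doublecortin (early neurons) or tyrosine hydroxylase (dopaminergic neurons) against untreated wells (0 = no change). Scores were averaged across repeats and both raters, and compounds averaging 2 or more were selected as hits for retesting.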

One assay relates to ReNCell VM. Briefly: neuronal differentiation score (DCX+ cell fraction vs untreated, manual image score) (score (-3 to 3)); higher = more neuronal differentiation. The settings on record: library: LOPAC; 2 uM; 2 weeks.
Turning to `CCCN1CCC[C@@H]2Cc3nc(N)ncc3C[C@H]21` [Quinelorane dihydrochloride], the neuronal differentiation score was inactive: 1. As to `Cc1[nH]c2ccc(O)cc2c1CCN` [2-Methyl-5-hydroxytryptamine maleate], the neuronal differentiation score was inactive: 0. On to `CCCN1CCc2cccc3c2[C@H]1Cc1ccc(O)c(O)c1-3` [R(-)-Propylnorapomorphine hydrochloride], for which the neuronal differentiation score was inactive: 1. On the same count and under the same terms, the value for `C[N+](C)(C)CCCCCCCCCC[N+](C)(C)C` [Decamethonium dibromide] was inactive: 0. With `CN1CC[C@]2(CCN3CCc4c(oc5ccccc45)[C@@H]3C2)N(C)C1=O`, the neuronal differentiation score is inactive: 1. The same measure, in the same setting: the result for `CN1CCc2cccc(Cl)c2CC1` reads inactive: 0; that for `C=CCN1CCc2cccc3c2[C@H]1Cc1ccc(O)c(O)c1-3` [R(-)-N-Allylnorapomorphine hydrobromide], inactive: 0. As for `N#C/C(=C\c1ccc(O)c(O)c1)C(N)=S` [Tyrphostin 47], the neuronal differentiation score is inactive: 0.

`N[C@@H](Cn1ccc(=O)[nH]c1=O)C(=O)O` [S(-)-Willardiine]: the neuronal differentiation score is inactive: 0.

In the case of `NC(=O)c1cc(N2CC2)c([N+](=O)[O-])cc1[N+](=O)[O-]`, the neuronal differentiation score is inactive: 0.

The assay is the same for the next values; noted with them: library: Natural; 2 uM; 2 weeks.
Turning to `CC(=O)O[C@@H]1C[C@@]2(C)[C@H](c3ccoc3)C[C@H]3O[C@]32[C@]2(C)C(=O)C(O)=C3C(C)(C)C(=O)C=C[C@]3(C)[C@@H]12` [anthothecol], the neuronal differentiation score is inactive: 0. Regarding `CC(C)=CCOc1c2occc2cc2ccc(=O)oc12` [imperatorin], the neuronal differentiation score is inactive: 0.

For the compound `CC(=O)OC[C@]12C[C@H](OC(=O)CC(C)C)C(C)=C[C@H]1O[C@@H]1[C@H](O)[C@@H](OC(C)=O)[C@@]2(C)[C@]12CO2` [t2 toxin], the neuronal differentiation score was inactive: 0.

Still in this assay, the particulars now being: library: Phytochemical; 2 uM; 2 weeks.
Regarding `CN(C)Cc1c[nH]c2ccccc12` [Gramine], the neuronal differentiation score was inactive: 0. Take `O=C1CCC[C@@H]2[C@H]3CCCN4CCC[C@@H](CN12)[C@@H]34` [Matrine]: the neuronal differentiation score is inactive: 0.

In the case of `CC1=C2C(=O)[C@H]3[C@@H](CC=C4C[C@@H](O)CC[C@@]43C)[C@@H]2CC[C@]12O[C@@H]1C[C@H](C)CN[C@H]1[C@H]2C` [Jervine], the neuronal differentiation score is inactive: 0.

The same assay, now with this note: library: Prestwick; 2 uM; 2 weeks.
Turning to `C#C[C@]1(O)CC[C@H]2[C@@H]3CCC4=CC(=O)CC[C@]4(C)[C@H]3CC[C@@]21C` [Ethisterone], the neuronal differentiation score is inactive: 0.

For `Clc1ccc(C(OCCN2CCCCC2)c2ccccc2)cc1` (stereo unspecified) [Cloperastine hydrochloride], the neuronal differentiation score is inactive: 0. Regarding `C[C@]12Cc3c[nH]nc3C[C@@H]1CC[C@@H]1[C@@H]2CC[C@@]2(C)[C@H]1CC[C@]2(C)O` [Stanozolol], the neuronal differentiation score was inactive: 0.

Turning to `CCCC(C)C1(CC)C(=O)NC(=O)NC1=O` (stereo unspecified) [Pentobarbital], the neuronal differentiation score is inactive: 0.

`NCC(CC(=O)O)c1ccc(Cl)cc1` (racemic) [Baclofen (R,S)]: the neuronal differentiation score was inactive: 0.
